These are yes or no findings as the source states them, for the method shown. Some entries that bind do so weakly or less than the wild type.

This is an account of results in patent EP4335450A1.

In the test the target is human transferrin receptor-Fc tag standard (human) (UniProt P02786). Briefly: ELISA, hTfR-Fc coated on plate.

B1: huHF_Mutant2-dual (protein)
chain: MTTASTSQVRQNYHAASEAAINAQINLELYASYVYLSMSYYFDRDDVALKNFAKYFLHQSHEEREHAEKLMKLQNQRGGRIALADIQKPDCDDGGSYGSLYAFDIWESGLNAMECALHLEKNVNQSLLALHALATAKNDPHLCDFIETHYLNEQVKAIKELGDHVTNLRKMGAPESGLAEYLFDKHTLGDSDNESMPSFITLASLSTWEGYFDF
As for B1, the binding result is listed as “binds”.
